Measured values from US20050142088A1 (priority 2002, published 2005).

Legend:
[1] = system: rats; conditions: dose of approximately 100 mg/kg or more
[2] = system: SD-type SPF rats; experiment: hair growth promoting action of tape preparation/lotion on shaved back of rats; type: in vivo, rat; conditions: conclusion from the tape and lotion experiments
Description: First, a description of a tape preparation used in the present invention will be given. […] The formulation shown in FIG. 1 was weighed out precisely into a glass vial, an appropriate amount of water was added and dilution and stirring were carried out, and then ultrasound treatment was carried out to obtain a homogeneous solution. The homogeneous solution was applied uniformly onto a 20 cm×15 cm polyethylene nonwoven cloth.
Afterthere, drying was carried out overnight at 40° C., and then a fluoropolymer coated polyester film was put on, thus obtaining the tape preparation used in the present invention.
The tape preparation obtained as described above was cut into 4 cm×3 cm pieces, thus preparing an active tape preparation. SD-type SPF rats were used as test animals. Note that the rats used in the experiment were 10 weeks or 8 weeks old.
On the day before the experiment, both the 10-week-old rats and the 8-week-old rats were anesthetized with ether, and then the hair on the back was shaved off using electric clippers and an electric shaver. Furthermore, on the day of the experiment, hair was again removed from the hair-removed sites using an electric shaver. […]

`COc1cc2c(cc1OC)C(=O)C(CC1CCN(Cc3ccccc3)CC1)C2` (centres unmarked) [donepezil, 1-benzyl4-[(5,6-dimethoxy-1-indanon)-2-yl]methylpiperidine] was tested, and the serious toxicity [1] was “serious toxicity was not exhibited” and the “hair growth action (overall conclusion)” value [2] was “excellent hair growth action”.
